Reference: PMC7819943, “Rice protein-binding microarrays: a tool to detect cis-acting elements near promoter regions in rice”
This is one part of the list.

The sequences below were run against T1, OsSMF1 (Oryza sativa, UniProt Q6ZLB0 1-436) (assay: protein-binding microarray (RPBM); PBS, 2% BSA, 51.3 ng/ul salmon testes DNA, 50 uM zinc acetate, 200 nM TF, 25 C, 1 h; high values mean tight binding). Conditions: protein: recombinant; tags: N-terminal polyhistidine and DsRed monomer fusion (pET32a); chain copies: 2; label: CyDye5-dUTP incorporated in the synthesized complementary strand; 3' TTTTT single-stranded linker to array surface; dsDNA, one strand shown.
T1 sequence: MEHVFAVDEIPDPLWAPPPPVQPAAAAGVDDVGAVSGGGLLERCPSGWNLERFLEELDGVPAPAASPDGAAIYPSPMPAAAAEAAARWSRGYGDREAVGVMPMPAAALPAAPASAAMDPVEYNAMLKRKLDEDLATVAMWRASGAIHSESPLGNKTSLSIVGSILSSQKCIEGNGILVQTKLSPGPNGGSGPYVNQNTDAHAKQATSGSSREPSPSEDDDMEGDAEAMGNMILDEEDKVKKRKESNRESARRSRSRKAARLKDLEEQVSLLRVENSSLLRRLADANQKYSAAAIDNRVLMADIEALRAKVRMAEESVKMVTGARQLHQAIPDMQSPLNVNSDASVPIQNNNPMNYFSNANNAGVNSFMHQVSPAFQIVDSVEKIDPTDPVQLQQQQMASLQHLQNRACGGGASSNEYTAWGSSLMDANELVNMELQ
Method in brief: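 In PBS with 2% BSA, salmon testes DNA and 50 µM zinc acetate, 200 nM protein was incubated on a custom Agilent array at 25 °C for 1 h and then washed off. The array had been made double-stranded by primer extension with Cy5-dUTP and blocked with 2% BSA. The proteins were transcription factors fused N-terminally to polyhistidine and DsRed, expressed in E. coli BL21-CodonPlus and purified on Ni–NTA. The binding signal is per-feature fluorescence intensity (arbitrary units) from an Axon 4000B scanner.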

Sequence	binding signal
GTTGTTGTTCTTGGATGTGAATGTGAATAATGTGATGTTTCGGAGTCACCTAGTGCAG	3350 fluorescence intensity (a.u.)
CTCGAAATCTGGAACTTATTAGACTTCTCATGGTACGAATCGGAGTCACCTAGTGCAG	4450 fluorescence intensity (a.u.)
GCTCTCTCTTCATCCTCCATGGCTATGGCTTGCATGATCTCGGAGTCACCTAGTGCAG	3250 fluorescence intensity (a.u.)
TTGGCCCAGTGGTCTTCCAAATGAGGCCCCACGAAGCCCTCGGAGTCACCTAGTGCAG	6420 fluorescence intensity (a.u.)
AAATAAATTTGACGTGAAGTGGAATGACAGCTGGTGAACTCGGAGTCACCTAGTGCAG	3520 fluorescence intensity (a.u.)
CCGTTTAGCAGTTATGTACGTGTCAAAACCAGAGAATAGACGGAGTCACCTAGTGCAG	4370 fluorescence intensity (a.u.)
CCGTGACACCAGCTCATGCTTCCAGCTCACCACTAGCACCCGGAGTCACCTAGTGCAG	6810 fluorescence intensity (a.u.)
AACTAGTGCACAACTACACATCAGCTTCAGTCTGCTCACTCGGAGTCACCTAGTGCAG	3210 fluorescence intensity (a.u.)
TCATCCACCAACTGGTGCAGCAGGGTCCAGTCATACAAAGCGGAGTCACCTAGTGCAG	3220 fluorescence intensity (a.u.)
TTTACAAAGTCAACGGTACAGATCATCAAACCAAGTGTTGCGGAGTCACCTAGTGCAG	3250 fluorescence intensity (a.u.)
GAATTTCCCCGAAGGCCACGTCAAAACGCACGCAGCTACACGGAGTCACCTAGTGCAG	6480 fluorescence intensity (a.u.)
CCAAATAGACTCTTACTTATAAGGGTTGAGTCTAGAGTGACGGAGTCACCTAGTGCAG	6050 fluorescence intensity (a.u.)
AATGATGACAAGGTTGCCCTACCTTGTCATCTTCCTCATCCGGAGTCACCTAGTGCAG	5150 fluorescence intensity (a.u.)
AGCTGGATTCATATCACAGTATCCCGTGCTCTAGCTGTCCCGGAGTCACCTAGTGCAG	3300 fluorescence intensity (a.u.)
ATTACCTTGTCACAGACAGCTCGCCGCACTTTCTCCCGAACGGAGTCACCTAGTGCAG	4040 fluorescence intensity (a.u.)
AGTATATTCTTCTTACCCGACCGGTGACTTATTTCGAATGCGGAGTCACCTAGTGCAG	4030 fluorescence intensity (a.u.)
CAACCTCAACCTCACGCAGCTCCCGCGCCAACCGCGACCTCGGAGTCACCTAGTGCAG	3260 fluorescence intensity (a.u.)
TCGTAGGGGTAGAGTTTGCGTGCGTGTGTTCATAGGGGTGCGGAGTCACCTAGTGCAG	4520 fluorescence intensity (a.u.)
GTGGGCTTGTCATTTGTCAACACTGCAGTACAGCACCGTTCGGAGTCACCTAGTGCAG	3160 fluorescence intensity (a.u.)
ACCGCAGTCAGTGCCGCCACCAGCTGACCTGCCTGACCAACGGAGTCACCTAGTGCAG	3160 fluorescence intensity (a.u.)
GGGTTAAGTCCCCTTATATTTGTGTGTGCTAGGGGATCGGCGGAGTCACCTAGTGCAG	3140 fluorescence intensity (a.u.)

Sequence	binding signal
GGCGCGGTGAGGTGGCGGCGCAGTCGCCGGATCGGCTCCACGGAGTCACCTAGTGCAG	4510 fluorescence intensity (a.u.)
ACCACTGTTTGTGGAGTGTGTGCACACACCACCTCCGATGCGGAGTCACCTAGTGCAG	3810 fluorescence intensity (a.u.)
CTCATGGCAACTCAGCCCATGAAGAAAGACTTGTACAGGCCGGAGTCACCTAGTGCAG	3370 fluorescence intensity (a.u.)
ATGTGCTGGCGATCTTATCCACACCGTTTCCTTACACCCTCGGAGTCACCTAGTGCAG	37600 fluorescence intensity (a.u.)
AATTTTGCTACAAGACATTACGATTTCGCGGTTTTAGCCGCGGAGTCACCTAGTGCAG	4220 fluorescence intensity (a.u.)
GCCGACACGTCGCGACGCCGCTTGCCACGCGCCACGCGCGCGGAGTCACCTAGTGCAG	6450 fluorescence intensity (a.u.)
TCTTCATGTAGTCAGCATACATCTGTCACAGCCACAGACACGGAGTCACCTAGTGCAG	4480 fluorescence intensity (a.u.)
GTCTCAATTAGGACCTAGAAAAGTTCAATGGCGTATATGACGGAGTCACCTAGTGCAG	3330 fluorescence intensity (a.u.)
AGGAGAGGAAGAGAGAAAGAGAGAGAAGCAGAGCAGAGGACGGAGTCACCTAGTGCAG	3300 fluorescence intensity (a.u.)
CTCTCAAAATATTCGGATGTAATTTTAGTCGCACAAACATCGGAGTCACCTAGTGCAG	39200 fluorescence intensity (a.u.)
GGTCATTCTACCCTCTGATACAGTACTAGTCACCATTCAGCGGAGTCACCTAGTGCAG	4220 fluorescence intensity (a.u.)
TTACAAAATTAAAACCATATATCGTCGTCACGTACTTTTACGGAGTCACCTAGTGCAG	3360 fluorescence intensity (a.u.)
CCTTCCCCGTCGCGCTCTCCTTGGCGTCGGACATCTTCTCCGGAGTCACCTAGTGCAG	3310 fluorescence intensity (a.u.)
AGGTAGTAGGAACGGGTGACAATAGTCGGCCAGCTCTACACGGAGTCACCTAGTGCAG	4110 fluorescence intensity (a.u.)
TAATTAGATCGTGCGTGCGTGCGTGCTGTTCGTGAATGTTCGGAGTCACCTAGTGCAG	5460 fluorescence intensity (a.u.)
TGACATAGAGAGTGATCACAAGCGAAATATTTATTCGGAACGGAGTCACCTAGTGCAG	48300 fluorescence intensity (a.u.)
CTCCGCATCTCCCCTCAATCTTACTCCGTCACTGACACGTCGGAGTCACCTAGTGCAG	8980 fluorescence intensity (a.u.)
GAGCGACGCCGACGCCTCCCTCGCATTCGCATCAGCCCTGCGGAGTCACCTAGTGCAG	19300 fluorescence intensity (a.u.)
TTTCGTATATAAAGATTTCGCATGAAACATATCATTTAGCCGGAGTCACCTAGTGCAG	11800 fluorescence intensity (a.u.)
GGTGCTACTCCCAACGTCATATGTTGACCAGCGTCGAAGGCGGAGTCACCTAGTGCAG	3210 fluorescence intensity (a.u.)
AACAAGTGTGTTGGTGGTGGTGGAAGTTGTTACAGAATTGCGGAGTCACCTAGTGCAG	3470 fluorescence intensity (a.u.)

Three entries from above, set out differently:
CTCTCAAAATATTCGGATGTAATTTTAGTCGCACAAACATCGGAGTCACCTAGTGCAG
  binding signal: 39200 fluorescence intensity (a.u.)
GGTCATTCTACCCTCTGATACAGTACTAGTCACCATTCAGCGGAGTCACCTAGTGCAG
  binding signal: 4220 fluorescence intensity (a.u.)
TTACAAAATTAAAACCATATATCGTCGTCACGTACTTTTACGGAGTCACCTAGTGCAG
  binding signal: 3360 fluorescence intensity (a.u.)
